Test results reported in patent publication US4659712A, “Fodder additive and a process for the preparation” (Richter Gedeon Vegyeszeti Gyar Rt., priority 1984, dated 1987).
Several values for one entry are separate records, joined by “and”; a condition that tells them apart may be missing. Identical values can stand only once.

Assay: Organoleptic examination (boiling test) of muscle and liver tissues of pigs treated with Carbadox and flumecinol
Format: in vivo
Set-up: key to visual observation / organoleptic (odor) score: 1: negative; 2: slight strange (indeterminable) odor; 3: some strange (slight medicamentlike) odor; 4: definite strange (more expressed medicament) odor
Conditions: for visual observation / organoleptic (odor) score: positive control (Carbadox, no flumecinol), individual animal
Protocol: Tests were carried out at a large-scale pig farm, where 25 mg/kg of body weight of Carbadox admixed with the fodder of the pigs were administered to pigs having a live weight of 40 kg. From a population fed with this fodder 27 animals, each weighing exactly 40 kg, were selected, by weighing them separately. The selected animals were railed off in a place suitable for further tests. From this time on (zero time) the animals were given the same fodder as before, except Carbadox.
The 27 animals were divided into three groups as follows:
Group I: 12 animals (ser. Nos. from 1 to 12) slaughtering: three animals each when starting the experiment (0 time) and on the 1st, 5th and 15th days (positive control group) Group II: 9 amimals (ser. Nos. from 13 to 21) treatment: a single 40 mg/kg of body weight dose of flumecinol at zero time. slaughtering: three animals each on the 1st, 5th and 15th days (group treated with a single dose of flumecinol) Group III: 6 animals (ser. Nos. 22 to 27) treatment: 40 mg/kg of body weight of flumecinol for three days, at zero time and on the 1st and 2nd day slaughtering: three animals each on the 5th and 15th days (group treated with flumecinol three times) Flumecinol is available as a micropellet containing 19.02% of active ingredient. From this and a 1% starch hydrolysate a suspension is prepared, containing 40 mg of flumecinol per 1 ml (dose used for one kg of body weight). The active compound was administered 8 o'clock in the morning, without previous fasting, through a stomach tube, in order to ensure exact conditions for the experiments. The animals were killed and samples were taken from 8 to 11 o'clock in the morning, whereupon the samples were transported into the analytical laboratory within one hour, under cooling.
Quinoxaline-2-carboxylic acid (a metabolite of Carbadox) was determined in the chop, liver and kidney tissues of three animals from each group. Each muscle and liver sample was subjected to organoleptic examination also (boiling test).

COC(=O)NN=Cc1c[n+]([O-])c2ccccc2[n+]1[O-] [Carbadox, 3-(2-quinoxalinylmethylene)-carbazic acid methyl ester N,N'-dioxide, reference compound]
unpleasant odor in the liver (Carbadox without flumecinol, liver, 15th day): an unpleasant odor is detected even on the 15th day | visual observation / organoleptic (odor) score (0 day, chop): 2 | visual observation / organoleptic (odor) score (0 day, ham): 2 | visual observation / organoleptic (odor) score (0 day, liver): 4 | visual observation / organoleptic (odor) score (1st day, chop): 1 and 2 | visual observation / organoleptic (odor) score (1st day, ham): 2 and 1 | visual observation / organoleptic (odor) score (1st day, liver): 4 | visual observation / organoleptic (odor) score (5th day, chop): 1 | visual observation / organoleptic (odor) score (5th day, ham): 1 | visual observation / organoleptic (odor) score (5th day, liver): 3 and 2 | visual observation / organoleptic (odor) score (15th day, chop): 1 | visual observation / organoleptic (odor) score (15th day, ham): 1 | visual observation / organoleptic (odor) score (15th day, liver): 3 and 2
